Results are given in words; binding and its absence hold for the method and conditions named. Binding can be weak; no strength is given. For some assays here: Where a sequence is shown, tags or fusion partners need not be part of it. For some assays here: In cells and extracts the contact can be indirect.
T1: BIR2-Cub-PLV (Arabidopsis thaliana) (UniProt Q9LSI9)
T1 sequence: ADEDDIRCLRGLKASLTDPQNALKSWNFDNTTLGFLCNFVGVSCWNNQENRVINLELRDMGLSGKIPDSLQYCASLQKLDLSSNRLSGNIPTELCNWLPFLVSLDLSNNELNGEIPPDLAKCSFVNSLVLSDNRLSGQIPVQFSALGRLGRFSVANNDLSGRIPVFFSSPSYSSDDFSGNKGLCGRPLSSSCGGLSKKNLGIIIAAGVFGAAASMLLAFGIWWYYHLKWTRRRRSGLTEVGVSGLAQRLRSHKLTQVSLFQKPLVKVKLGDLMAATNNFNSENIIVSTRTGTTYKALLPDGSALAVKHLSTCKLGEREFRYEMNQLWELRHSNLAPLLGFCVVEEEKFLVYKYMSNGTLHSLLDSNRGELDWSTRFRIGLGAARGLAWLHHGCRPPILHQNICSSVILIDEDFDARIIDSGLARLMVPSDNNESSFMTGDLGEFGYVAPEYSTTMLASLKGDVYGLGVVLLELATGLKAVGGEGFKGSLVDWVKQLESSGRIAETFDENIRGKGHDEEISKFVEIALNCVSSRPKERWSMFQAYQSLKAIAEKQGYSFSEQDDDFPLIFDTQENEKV

By UniProt entry, the sequences of proteins in these tests, tags left out. Where a name states a change or a piece, a line headed by the entry shows the natural chain unless it says otherwise. Residues count along the entry.
UniProt Q9SRH6: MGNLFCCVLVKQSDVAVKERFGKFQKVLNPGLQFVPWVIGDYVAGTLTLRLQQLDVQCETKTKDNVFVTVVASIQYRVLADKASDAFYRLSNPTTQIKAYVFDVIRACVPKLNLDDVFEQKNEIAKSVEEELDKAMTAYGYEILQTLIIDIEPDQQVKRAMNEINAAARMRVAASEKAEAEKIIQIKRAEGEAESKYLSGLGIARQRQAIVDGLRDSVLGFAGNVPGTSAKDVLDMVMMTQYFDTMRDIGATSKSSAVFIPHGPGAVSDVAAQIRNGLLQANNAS
UniProt O22476, residues 24-1196: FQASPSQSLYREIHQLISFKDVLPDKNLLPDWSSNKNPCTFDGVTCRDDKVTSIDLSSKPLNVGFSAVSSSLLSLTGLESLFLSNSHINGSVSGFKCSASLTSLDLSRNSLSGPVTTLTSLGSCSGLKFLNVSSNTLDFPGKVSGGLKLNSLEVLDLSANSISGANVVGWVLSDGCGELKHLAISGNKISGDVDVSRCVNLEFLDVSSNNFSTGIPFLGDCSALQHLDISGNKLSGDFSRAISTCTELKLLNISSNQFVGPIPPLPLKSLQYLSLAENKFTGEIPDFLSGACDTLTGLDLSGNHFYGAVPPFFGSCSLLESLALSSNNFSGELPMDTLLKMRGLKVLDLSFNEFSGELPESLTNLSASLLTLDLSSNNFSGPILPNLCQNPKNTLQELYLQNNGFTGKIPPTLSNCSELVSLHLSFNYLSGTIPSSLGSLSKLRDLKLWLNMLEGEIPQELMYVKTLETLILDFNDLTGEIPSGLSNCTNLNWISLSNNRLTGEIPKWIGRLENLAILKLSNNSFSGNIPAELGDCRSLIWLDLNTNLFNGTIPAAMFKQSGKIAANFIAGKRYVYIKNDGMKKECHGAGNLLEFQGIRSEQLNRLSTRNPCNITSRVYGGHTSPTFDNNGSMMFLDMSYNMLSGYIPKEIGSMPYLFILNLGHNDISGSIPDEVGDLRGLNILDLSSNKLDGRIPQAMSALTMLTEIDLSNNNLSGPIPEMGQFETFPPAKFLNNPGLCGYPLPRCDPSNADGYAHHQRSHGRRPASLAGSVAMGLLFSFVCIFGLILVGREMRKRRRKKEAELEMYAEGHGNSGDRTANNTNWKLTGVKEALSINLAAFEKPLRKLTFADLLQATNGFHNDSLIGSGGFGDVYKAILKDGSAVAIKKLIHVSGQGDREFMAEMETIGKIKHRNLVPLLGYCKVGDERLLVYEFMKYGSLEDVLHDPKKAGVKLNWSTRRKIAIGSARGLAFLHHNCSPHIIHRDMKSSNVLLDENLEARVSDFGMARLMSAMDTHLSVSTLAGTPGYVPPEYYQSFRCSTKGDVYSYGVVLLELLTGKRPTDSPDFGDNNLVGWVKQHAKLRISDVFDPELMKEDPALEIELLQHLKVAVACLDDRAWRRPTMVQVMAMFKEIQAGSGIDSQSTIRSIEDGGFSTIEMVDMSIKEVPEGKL

T2: BAK1-GFP (Arabidopsis thaliana) (UniProt Q94F62)
T2 sequence: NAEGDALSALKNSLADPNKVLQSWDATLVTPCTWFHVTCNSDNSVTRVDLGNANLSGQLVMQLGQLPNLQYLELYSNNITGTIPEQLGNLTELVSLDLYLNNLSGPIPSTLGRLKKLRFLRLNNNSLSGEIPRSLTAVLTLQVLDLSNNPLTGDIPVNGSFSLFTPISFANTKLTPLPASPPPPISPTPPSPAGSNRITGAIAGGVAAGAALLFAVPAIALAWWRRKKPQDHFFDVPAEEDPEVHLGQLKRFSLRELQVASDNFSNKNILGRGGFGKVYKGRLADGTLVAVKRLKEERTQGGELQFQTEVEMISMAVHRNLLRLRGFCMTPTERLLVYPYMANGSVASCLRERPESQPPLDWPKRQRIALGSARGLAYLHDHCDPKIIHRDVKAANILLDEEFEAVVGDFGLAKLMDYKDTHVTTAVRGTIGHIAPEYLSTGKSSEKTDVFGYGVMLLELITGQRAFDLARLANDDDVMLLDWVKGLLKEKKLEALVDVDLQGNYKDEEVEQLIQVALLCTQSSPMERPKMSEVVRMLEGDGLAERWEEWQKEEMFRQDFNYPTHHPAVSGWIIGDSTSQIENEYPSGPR


Key:
[1] = target: T1, BIR2-Cub-PLV (Arabidopsis thaliana); assay: two-hybrid; mating-based split-ubiquitin system (mbSUS) in yeast
[2] = target: T2, BAK1-GFP (Arabidopsis thaliana); assay: co-IP; Arabidopsis Col-0 mesophyll protoplasts co-transfected with BAK1-GFP or BIR3-GFP and HIR2-HA; free GFP as negative control; GFP-trap beads
[3] = target: HIR2-Cub-PLV (Arabidopsis thaliana) (UniProt Q9SRH6); assay: two-hybrid; mating-based split-ubiquitin system (mbSUS) in yeast

Row | binding [3] | Molecule | other results
1 |  | HIR2-Nub-3xHA (from UniProt Q9SRH6) | binding [1]: binds
2 |  | HIR2-HA (Arabidopsis protoplasts) (from UniProt Q9SRH6) | binding [2]: binds
3 | no binding | BRI1-Nub-3xHA (from UniProt O22476 24-1196) (receptor) | 
4 | binds | BAK1-Nub-3xHA (receptor, UniProt Q94F62 26-615) NAEGDALSALKNSLADPNKVLQSWDATLVTPCTWFHVTCNSDNSVTRVDLGNANLSGQLVMQLGQLPNLQYLELYSNNITGTIPEQLGNLTELVSLDLYLNNLSGPIPSTLGRLKKLRFLRLNNNSLSGEIPRSLTAVLTLQVLDLSNNPLTGDIPVNGSFSLFTPISFANTKLTPLPASPPPPISPTPPSPAGSNRITGAIAGGVAAGAALLFAVPAIALAWWRRKKPQDHFFDVPAEEDPEVHLGQLKRFSLRELQVASDNFSNKNILGRGGFGKVYKGRLADGTLVAVKRLKEERTQGGELQFQTEVEMISMAVHRNLLRLRGFCMTPTERLLVYPYMANGSVASCLRERPESQPPLDWPKRQRIALGSARGLAYLHDHCDPKIIHRDVKAANILLDEEFEAVVGDFGLAKLMDYKDTHVTTAVRGTIGHIAPEYLSTGKSSEKTDVFGYGVMLLELITGQRAFDLARLANDDDVMLLDWVKGLLKEKKLEALVDVDLQGNYKDEEVEQLIQVALLCTQSSPMERPKMSEVVRMLEGDGLAERWEEWQKEEMFRQDFNYPTHHPAVSGWIIGDSTSQIENEYPSGPR | 
5 | binds | CERK1 (split-ubiquitin fusion) (receptor, UniProt A8R7E6 24-617) KCRTSCPLALASYYLENGTTLSVINQNLNSSIAPYDQINFDPILRYNSNIKDKDRIQMGSRVLVPFPCECQPGDFLGHNFSYSVRQEDTYERVAISNYANLTTMESLQARNPFPATNIPLSATLNVLVNCSCGDESVSKDFGLFVTYPLRPEDSLSSIARSSGVSADILQRYNPGVNFNSGNGIVYVPGRDPNGAFPPFKSSKQDGVGAGVIAGIVIGVIVALLLILFIVYYAYRKNKSKGDSFSSSIPLSTKADHASSTSLQSGGLGGAGVSPGIAAISVDKSVEFSLEELAKATDNFNLSFKIGQGGFGAVYYAELRGEKAAIKKMDMEASKQFLAELKVLTRVHHVNLVRLIGYCVEGSLFLVYEYVENGNLGQHLHGSGREPLPWTKRVQIALDSARGLEYIHEHTVPVYVHRDIKSANILIDQKFRAKVADFGLTKLTEVGGSATRGAMGTFGYMAPETVYGEVSAKVDVYAFGVVLYELISAKGAVVKMTEAVGEFRGLVGVFEESFKETDKEEALRKIIDPRLGDSYPFDSVYKMAELGKACTQENAQLRPSMRYIVVALSTLFSSTGNWDVGNFQNEDLVSLMSGR | 
